# Laboratory results from patent US20030199523A1, “Heterocyclic calcium in channel blockers” (priority 2002, published 2003).
# At least one compound was matched to its structure with a doubt left.
# Test system: rat brain N-type calcium channel (α1B+α2δ+β1b)
# Assay: Whole cell patch clamp block of N-type calcium channels expressed in HEK 293 cells
# Assay type: cell-based
# Conditions: from IC50 at 0.1 Hz, holding potential −80 mV
# Protocol: Antagonist activity was measured using whole cell patch recordings on human embryonic kidney cells either stably or transiently expressing rat α1B+α2b+β1b channels (N-type channels) with 5 mM barium as a charge carrier.
# For transient expression, host cells, such as human embryonic kidney cells, HEK 293 (ATCC# CRL 1573) were grown in standard DMEM medium supplemented with 2 mM glutamine and 10% fetal bovine serum. HEK 293 cells were transfected by a standard calcium-phosphate-DNA coprecipitation method using the rat α1B+β1b+α2δ N-type calcium channel subunits in a vertebrate expression vector (for example, see Current Protocols in Molecular Biology).
# After an incubation period of from 24 to 72 hrs the culture medium was removed and replaced with external recording solution (see below). Whole cell patch clamp experiments were performed using an Axopatch 200B amplifier (Axon Instruments, Burlingame, Calif.) linked to an IBM compatible personal computer equipped with pCLAMP software. Borosilicate glass patch pipettes (Sutter Instrument Co., Novato, Calif.) were polished (Microforge, Narishige, Japan) to a resistance of about 4 MΩ when filled with cesium methanesulfonate internal solution (composition in MM: 109 CsCH3SO4, 4 MgCl2, 9 EGTA, 9 HEPES, pH 7.2). Cells were bathed in 5 mM Ba^++ (in mM: 5 BaCl2, 1 MgCl2, 10 HEPES, 40 tetraethylammonium chloride, 10 glucose, 87.5 CsCl pH 7.2). […]
compound,measurement,value
"O=C(CCOc1ccc(Cl)cc1Cl)Nc1nnc(C(F)(F)F)s1 [NT044, N-2-(5-trifluoromethyl-1,3,4-thiadiazolyl)-3-(2,4-dichlorophenoxy) propionyl amide]",Ratios N:L,14.7:1
same,Ratios N:P,45.7:1
